# Source: the pKa sets of Baltruschat and Czodrowski (2020)
# Details: basic group
compound,measurement,value
CN1CC[C@]23c4c5ccc(O)c4O[C@H]2C(=O)CC[C@H]3[C@H]1C5,pKa,7.97
